PubChem BioAssay AID1224829, NIAID – 2016

Aim: 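Follow-up of TLR4-NF-kappaB regulators using six separate siRNAs for each gene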 (follow-up of hits)
Cell system: mouse RAW264.7 G9 macrophage reporter cells
Knock-down reagent: single siRNA against mouse genes, 100 nM
Duration: 2 days of siRNA knock-down, then 40 min of LPS before fixing
Treatment: LPS (Salmonella minnesota R595) at 10 ng/ml
Read-out: 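Imaging of GFP-p65 after 40 min of LPS; nuclear over perinuclear ring intensity ratio, scaled to plate median and non-targeting control wells, given as z-score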
Direction: p65 translocation z-score: higher = more nuclear NF-kappaB p65 after LPS
Rule for the call: 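Active means the replicate-mean z-score lies beyond plus or minus 2, in either direction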
Calls: active = changed p65 translocation (either direction); inactive = no clear change
This is an unselected part of about 3,800 deposited reagents. 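Calls cover raised and lowered translocation; gene median uses one vendor's three siRNAs; qiagen siRNAs acted more weakly than ambion siRNAs.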 The numbers tell different reagents against one gene apart. Further read-outs or replicates are left out here.

gene knocked down	reagent no.	siRNA vendor or control pool	p65 translocation z-score, replicate mean	call
Eif3i	1	ambion single siRNA	1.29	inactive
Eif3i	2	ambion single siRNA	2.81	active
Eif3i	3	ambion single siRNA	-4.12	active
Eif3i	4	qiagen single siRNA	-0.412	inactive
Eif3i	5	qiagen single siRNA	-1.16	inactive
Eif3i	6	qiagen single siRNA	-0.867	inactive
Adra1a	1	ambion single siRNA	1.38	inactive
Adra1a	2	ambion single siRNA	-1.7	inactive
Adra1a	3	ambion single siRNA	0.838	inactive
Adra1a	4	qiagen single siRNA	1.97	inactive
Adra1a	5	qiagen single siRNA	-2.29	active
Adra1a	6	qiagen single siRNA	-2.59	active
Chaf1a	1	ambion single siRNA	-0.598	inactive
Chaf1a	2	ambion single siRNA	1.94	inactive
Chaf1a	3	ambion single siRNA	-0.195	inactive
Chaf1a	4	qiagen single siRNA	1.45	inactive
Chaf1a	5	qiagen single siRNA	0.356	inactive
Chaf1a	6	qiagen single siRNA	0.315	inactive
Hoxd3	1	ambion single siRNA	-0.116	inactive
Hoxd3	2	ambion single siRNA	-2.29	active
Hoxd3	3	ambion single siRNA	-2.93	active
Hoxd3	4	qiagen single siRNA	-0.273	inactive
Hoxd3	5	qiagen single siRNA	1.27	inactive
Hoxd3	6	qiagen single siRNA	1.7	inactive
Gpr83	1	ambion single siRNA	-3.77	active
Gpr83	2	ambion single siRNA	-3.52	active
Gpr83	3	ambion single siRNA	-1.53	inactive
Gpr83	4	qiagen single siRNA	-0.0707	inactive
Gpr83	5	qiagen single siRNA	-1.82	inactive
Gpr83	6	qiagen single siRNA	0.111	inactive
Lrrn4	1	ambion single siRNA	2.21	active
Lrrn4	2	ambion single siRNA	-1.78	inactive
Lrrn4	3	ambion single siRNA	-1.2	inactive
Lrrn4	4	qiagen single siRNA	1.86	inactive
Lrrn4	5	qiagen single siRNA	1.39	inactive
Lrrn4	6	qiagen single siRNA	0.372	inactive
